Primary screen of a compound library

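Viability assay of Plasmodium falciparum sporozoites; the read-out is not stated. The concentration is filed as 10 mM, unlikely as a test dose, so the dose is not known. Higher reads as lower viability (inferred: compounds with an IC50 in retests scored well above the rest). Strong results were mostly tested again. Of about 34,000 compounds tested this way, about 280 (0.84%) reached 50% or more in at least one test.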

Each number is a percent effect as filed. The record does not define 0% and 100%; most values in the screen are far below 50% and negative numbers occur (in some assays of this library far below -100). This is an unselected part of the compounds tested. Two or more numbers in one place are separate tests of the same structure; such repeats can differ widely.

CC(C(=O)Nc1ncccn1)N1CCCN(c2nccs2)CC1 (centres undefined) read 4.026%. CC(C)CCN1C2(CCN(Cc3nccs3)C2)c2ccccc2S1(=O)=O.O=C(O)C(F)(F)F (centres undefined) gave -13.83%. Cc1nc(C)n(CC2CN(CCOc3ccccc3F)CCO2)n1 (centres undefined) read -13.48%. For Cc1cc(C[S+]([O-])Cc2ccccc2C)no1 (centres undefined) the result was -137.5%. With Cn1nc(C(=O)N2CCOCC2)c2c1CN(CC1CC1)C2.O=C(O)C(F)(F)F.O=C(O)C(F)(F)F the screen gave 17.91%. Result for OCCn1cc(CN2CCN(CCOc3ccc(F)cc3)CC2)cn1 was -5.273%. CCS(=O)(=O)N1Cc2nccn2CC(COc2cccnc2)C1 (centres undefined) gave 5.087%. For Cc1nnc(C(C)N2CCCN(Cc3ccc(F)cc3)CC2)o1 (centres undefined) the result was 9.982%.

Result for [H][C@]12CCCN(C(=O)c3ccsc3)[C@@]1([H])CN(C(=O)c1ccco1)C2 was 9.923%. Result for CC(C)c1nn(C)c(Cl)c1CNCc1ccc2c(c1)OCCO2.Cl was 3.993%. With COc1ccc(C(=O)NC(CC(=O)O)c2cccs2)c(OC)c1 (centres undefined) the screen gave 6.191%. For COc1ccc2c(c1)NC(=O)C2OC(=O)CCc1ccc(F)cc1 (centres undefined) the result was -2.999%. With CC(=O)NC1CCCN(C(=O)NCCOc2ccc3c(c2)OCO3)C1 (centres undefined) the screen gave 1.602%. Cc1nc(CN2CCc3ncnc(-c4ccc(F)cc4)c3CC2)cs1.O=C(O)C(F)(F)F read -1.829%. O=c1[nH]c2nc(N3CCSCC3)ncc2c(=O)n1-c1cccc(F)c1 gave -1.015%. O=C(O)C(F)(F)F.O=C(O)C(F)(F)F.[H][C@@]12C[C@H](C(=O)NC3CC3)CN(Cc3ccc4ccccc4n3)[C@]1([H])CCO2 gave 5.912% and 1.117% and -6.431%.

For CCC1CN(C(=O)CN2CCN(c3nccc(OC)n3)CC2)CCO1 (centres undefined) the result was -3.68%. For O=C(O)C(F)(F)F.[H][C@@]12CN(c3nnc(C)s3)C[C@H](C(=O)NCC3CC3)[C@]1([H])CCO2 the result was -4.134%. Result for Cc1nn(C)c(N(C)C)c1CNCc1cccnc1 was -7.612%. O=C(O)C(F)(F)F.O=C(O)C(F)(F)F.[H][C@@]12CCC(=O)N(CCN(C)C)[C@]1([H])CCN2Cc1cccc(C#N)c1 gave -0.2577%. For [H][C@@]12C[C@H](C)O[C@]1([H])CCN(C(=O)CC1CC1)C2 the result was -16.07%. With CN(CC1(O)CCN(c2ccccn2)C1)C(=O)Cc1ccsc1 (centres undefined) the screen gave 11.76%. Result for [H][C@@]12COC[C@]1(CNS(C)(=O)=O)CN(C(=O)Cc1ccccc1F)C2 was 3.017%. With Cc1c(C(=O)N2CCC(O)(CN(C)C)C2)c2ccccc2n1C (centres undefined) the screen gave 5.961%.

With CC(C)(C)CC1CCCN1Cc1nc(-c2ccco2)no1 (centres undefined) the screen gave 58.36% and 65.06%. CN(c1ccccc1)c1ccc(CC2CCCN(CCO)C2)nn1 (centres undefined) read -3.645%. COc1cccc(N2CCN(C(=O)[C@H](O)C3CCCCC3)CC2=O)c1 read 3.623% and -0.5882% and 8.732%. For Cc1cc(C)n(CC2CCCN2C(=O)c2ccc(C(N)=O)cn2)n1 (centres undefined) the result was -15.51%. Result for CS(=O)(=O)N1CCC(c2nc3ccc(-c4cccc(F)c4)cn3n2)CC1 was -6.421%. For Cc1ccc(CCNC(=O)Nc2cc(C(F)(F)F)c[nH]c2=O)o1 the result was -6.166%. For CN(Cc1cc(-c2ccccc2)no1)C1CCCN(c2cccnn2)C1 (centres undefined) the result was -29.95% and -28.03% and 0.9812%. Cc1cc(C)n(CC2CN(c3cnc4ccccc4n3)CCO2)n1 (centres undefined) read -4.765%.

For Fc1ccc(-c2nnc(CN3CCCC3Cn3cccn3)o2)cc1 (centres undefined) the result was 4.739%. With CN(C)C(=O)COCC1CN(Cc2ccoc2)Cc2nnn(C)c21 (centres undefined) the screen gave 13.87%.

4 of the entries, repeated:

Cc1cc(C[S+]([O-])Cc2ccccc2C)no1 (centres undefined) gave -137.5%.
CN(Cc1cc(-c2ccccc2)no1)C1CCCN(c2cccnn2)C1 (centres undefined) gave -29.95% and -28.03% and 0.9812%.
CC(C)(C)CC1CCCN1Cc1nc(-c2ccco2)no1 (centres undefined) gave 58.36% and 65.06%.
O=C(O)C(F)(F)F.O=C(O)C(F)(F)F.[H][C@@]12C[C@H](C(=O)NC3CC3)CN(Cc3ccc4ccccc4n3)[C@]1([H])CCO2 gave 5.912% and 1.117% and -6.431%.

Data taken from ChEMBL document CHEMBL3988442, “University of Dundee, Small-Polar-MMV Screening Library” (2021).